{"source": "PubChem BioAssay AID1259308 (NCATS, 2017)", "screen": "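Genes whose loss raises luciferase production in HEK293 cells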 (primary screen)", "cells": "human HEK293 embryonic kidney cells stably expressing firefly luciferase (HEK-CMV-Luc2-Hygro)", "reagents": "single siRNA against human genes, 0.8 pmol siRNA per well", "duration": "72 h", "read-out": "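Luciferase light (ONE-Glo) measured on one replicate plate set and viability (CellTiter-Glo) on the other, scaled to a negative control siRNA, with robust z-scores and luciferase per cell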", "direction": "total luciferase, z-score: higher = more reporter protein produced", "hit rule": "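Active when the median/MAD z-score for overall luciferase is greater than 3; a gene was taken forward for validation with new siRNAs if at least two of its three siRNAs passed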", "meaning of the calls": "active = raised luciferase; inactive = no rise", "note": "The deposit covers about 59,000 reagents; this is a part drawn at random. About 1,510 of all reagents (2.6%) count as active. 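Calls use total luciferase alone and ignore viability, so some active siRNAs may act by altering cell number.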 Reagents against one gene are numbered here. Not all columns of the deposit are shown. Reagent sequences are not shown."}
{"Gene": "MRS2 (magnesium transporter MRS2)", "siRNA no.": 1, "total luciferase, z-score": -0.0209, "Call": "inactive"}
{"Gene": "MRS2 (magnesium transporter MRS2)", "siRNA no.": 2, "total luciferase, z-score": 0.00608, "Call": "inactive"}
{"Gene": "MRS2 (magnesium transporter MRS2)", "siRNA no.": 3, "total luciferase, z-score": 0.896, "Call": "inactive"}
{"Gene": "OR10R2 (olfactory receptor family 10 subfamily R member 2)", "siRNA no.": 1, "total luciferase, z-score": 1.84, "Call": "inactive"}
{"Gene": "OR10R2 (olfactory receptor family 10 subfamily R member 2)", "siRNA no.": 2, "total luciferase, z-score": -0.101, "Call": "inactive"}
{"Gene": "OR10R2 (olfactory receptor family 10 subfamily R member 2)", "siRNA no.": 3, "total luciferase, z-score": -0.364, "Call": "inactive"}
{"Gene": "ZNF43 (zinc finger protein 43)", "siRNA no.": 1, "total luciferase, z-score": -0.111, "Call": "inactive"}
{"Gene": "ZNF43 (zinc finger protein 43)", "siRNA no.": 2, "total luciferase, z-score": -0.0661, "Call": "inactive"}
{"Gene": "ZNF43 (zinc finger protein 43)", "siRNA no.": 3, "total luciferase, z-score": -0.45, "Call": "inactive"}
{"Gene": "CNN3P1 (calponin 3 pseudogene 1)", "siRNA no.": 1, "total luciferase, z-score": 0.351, "Call": "inactive"}
{"Gene": "CNN3P1 (calponin 3 pseudogene 1)", "siRNA no.": 2, "total luciferase, z-score": 4.04, "Call": "active"}
{"Gene": "CNN3P1 (calponin 3 pseudogene 1)", "siRNA no.": 3, "total luciferase, z-score": 0.993, "Call": "inactive"}

Reagents listed so far with an active call (1):
{"Gene": "CNN3P1 (calponin 3 pseudogene 1)", "siRNA no.": 2, "total luciferase, z-score": 4.04, "Call": "active"}
